From PubChem BioAssay AID248 (DTP/NCI, 2004)
The list does not hold the whole screen: it is rich in T/C values a quarter to a half above the control, in often repeated tests (any T/C) and in doses without a T/C. Further doses and runs are listed elsewhere. T/C is the treated group as % of the vehicle group. Some doses have a count of surviving animals in place of a T/C: the source files T/C as zero there, which appears to mark a toxic dose or a test without result, not a measured value. Some doses without a T/C left all or most animals alive at the check, yet need not have been tolerated: survival well below the control is almost never listed, so the zero probably covers shortened survival too. Survivors were counted at the toxicity check, usually on the fifth day, unless a day is given; later deaths do not show. Schedules are NCI's codes, taken here to give the interval after Q, in days (D) or hours (H), and the number of doses after X. Some schedule codes hold Z or #, which are not explained here. Some molecules as drawn cover several salts, stereoisomers or complexes of the source; a dose is that of the sample tested. For survival time, the PubChem record calls one and a half times the control and up active, and a quarter to a half above the control has no call in these data; cut-offs in other NCI protocols can differ. Some T/C values are followed by the survivors on the day toxicity was checked, most often the fifth; without a count, all were alive then.

System: L1210 leukemia ip in BDF1 mice, survival T/C
Experiment: NCI In Vivo Anticancer Drug Screen. Data for tumor model L1210 Leukemia (intraperitoneal) in B6D2F1 (BDF1) mice
Conditions: T/C endpoint: mean survival time, higher T/C = longer survival
[1] = dose: 100.0 mg/kg/injection, schedule: Q01DX009 (ip), vehicle: saline
[2] = dose: 25.0 mg/kg/injection, schedule: Q04DX003 (ip), vehicle: saline with Tween-80
[3] = dose: 400.0 mg/kg/injection, schedule: Q01DX001 (ip), vehicle: saline
[4] = dose: 400.0 mg/kg/injection, schedule: Q01DX009 (ip), vehicle: saline
[5] = dose: 400.0 mg/kg/injection, schedule: Q04DX003 (ip), vehicle: saline
[6] = dose: 200.0 mg/kg/injection, schedule: Q01DX009 (ip), vehicle: saline

C=CCN(CC=C)c1ncnc2[nH]ncc12
survivor count (dose: 250.0 mg/kg/injection, schedule: Q01DX015 (ip), vehicle: carboxymethylcellulose (CMC)): 0 of 6 | survivor count (dose: 500.0 mg/kg/injection, schedule: Q01DX015 (ip), vehicle: carboxymethylcellulose (CMC)): 0 of 6

COc1ccc(NC(=O)Oc2ccc(Br)cc2Br)c(OC)c1
survivor count (dose: 400.0 mg/kg/injection, schedule: Q01DX009 (ip), vehicle: Klucel (hydroxypropylcellulose) (HPC)): 3 of 6

CC1COCC(C)N1 (stereo not drawn)
survivor count [1]: 6 of 6

CC(=O)Nc1cc(Cl)c2[nH]cnc2n1
T/C (dose: 200.0 mg/kg/injection, schedule: Q01DX001 (ip), vehicle: Klucel (hydroxypropylcellulose) (HPC)): 125 % of control [4 of 6 alive] | survivor count (dose: 400.0 mg/kg/injection, schedule: Q01DX001 (ip), vehicle: Klucel (hydroxypropylcellulose) (HPC)): 0 of 6 | survivor count (dose: 400.0 mg/kg/injection, schedule: Q04DX003 (ip), vehicle: water): 2 of 6

[Cl][Pt+2][Cl].[NH-]C1CCC1.[NH-]C1CCC1
T/C (dose: 4.0 mg/kg/injection, schedule: Q01DX009 (ip), vehicle: saline with Tween-80): 133 % of control | T/C (dose: 8.0 mg/kg/injection, schedule: Q01DX001 (ip), vehicle: saline with Tween-80): 133 % of control | T/C (dose: 12.5 mg/kg/injection, schedule: Q04DX003 (ip), vehicle: saline with Tween-80): 125 % of control | T/C (dose: 16.0 mg/kg/injection, schedule: Q01DX001 (ip), vehicle: saline with Tween-80): 130 % of control | T/C (dose: 20.0 mg/kg/injection, schedule: Q04DX003 (ip), vehicle: saline): 128 % of control | T/C [2]: 140 % of control | T/C (dose: 50.0 mg/kg/injection, schedule: Q04DX003 (ip), vehicle: Klucel (hydroxypropylcellulose) (HPC)): 132 % of control | survivor count (dose: 128.0 mg/kg/injection, schedule: Q01DX001 (ip), vehicle: saline with Tween-80): 2 of 6

Cc1cnc(SCc2ccc(Cl)cc2)[nH]c1=S
survivor count (dose: 100.0 mg/kg/injection, schedule: Q01DX Z (ip), vehicle: methylcellulose (MC)): 6 of 6 | survivor count (dose: 200.0 mg/kg/injection, schedule: Q01DX Z (ip), vehicle: methylcellulose (MC)): 6 of 6

O=[N+]([O-])c1ccc(O)c([N+](=O)[O-])c1
survivor count (dose: 6.7 mg/kg/injection, schedule: Q01DX Z (ip), vehicle: carboxymethylcellulose (CMC)): 10 of 10 | survivor count (dose: 13.4 mg/kg/injection, schedule: Q01DX Z (ip), vehicle: carboxymethylcellulose (CMC)): 10 of 10 | survivor count (dose: 26.8 mg/kg/injection, schedule: Q01DX Z (ip), vehicle: carboxymethylcellulose (CMC)): 0 of 10 | survivor count (dose: 200.0 mg/kg/injection, schedule: Q01DX001 (ip), vehicle: saline): 0 of 6 | survivor count [3]: 0 of 6

C/C(=N/N=C(N)N)C(C)C
survivor count (dose: 120.0 mg/kg/injection, schedule: Q01DX Z (ip), vehicle: carboxymethylcellulose (CMC)): 4 of 6 | survivor count (dose: 240.0 mg/kg/injection, schedule: Q01DX Z (oral), vehicle: carboxymethylcellulose (CMC)): 1 of 6 | survivor count (dose: 480.0 mg/kg/injection, schedule: Q01DX Z (oral), vehicle: carboxymethylcellulose (CMC)): 0 of 6 | survivor count (dose: 960.0 mg/kg/injection, schedule: Q01DX Z (oral), vehicle: carboxymethylcellulose (CMC)): 0 of 6

c1ccc(C2(c3ccccc3)CC([P+](c3ccccc3)(c3ccccc3)c3ccccc3)=NN2)cc1
survivor count [3]: 0 of 6

O=C(Nc1ccccc1F)C(Cl)(Cl)Cl
survivor count (dose: 400.0 mg/kg/injection, schedule: Q04DX002 (ip), vehicle: Klucel (hydroxypropylcellulose) (HPC)): 3 of 3

NC(N)=NCCCCCC(=O)Oc1ccc([N+](=O)[O-])cc1
survivor count [4]: 0 of 6 | survivor count [5]: 0 of 6

COc1cc2c(c(OC)c1OC)-c1ccc(SC)c(=O)cc1C(NC1OC(CO)C(O)C(O)C1O)CC2 (stereo not drawn)
survivor count (dose: 200.0 mg/kg/injection, schedule: Q01DX005 (ip), vehicle: saline): 2 of 4

CC(C)OP(=O)(N1CC1(C)C)N1CC1(C)C (stereo not drawn)
survivor count (dose: 100.0 mg/kg/injection, schedule: Q04DX002 (ip), vehicle: saline): 2 of 3 | survivor count (dose: 200.0 mg/kg/injection, schedule: Q04DX002 (ip), vehicle: saline): 0 of 3 | survivor count (dose: 400.0 mg/kg/injection, schedule: Q04DX002 (ip), vehicle: saline): 0 of 3

CS(=O)(=O)OC/C(Br)=C/Br
survivor count (dose: 400.0 mg/kg/injection, schedule: Q01DX001 (ip), vehicle: carboxymethylcellulose (CMC)): 2 of 4

CC(=O)Nc1cc(Cl)cc2c1-c1c(Cl)cc(Cl)cc1C2=O
survivor count [6]: 3 of 6 | survivor count [4]: 0 of 6

O=C(OCC1OC(n2cnc3c(=S)nc[nH]c32)C(OC(=O)c2ccc(Cl)cc2)C1OC(=O)c1ccc(Cl)cc1)c1ccc(Cl)cc1 (stereo not drawn)
T/C [6]: 132 % of control | T/C [4]: 148 % of control

CN(C)CCCN1c2ccccc2CCc2ccccc21
survivor count [1]: 5 of 6 | survivor count (dose: 100.0 mg/kg/injection, schedule: Q04DX003 (ip), vehicle: saline): 0 of 4 | survivor count [6]: 0 of 6 | survivor count (dose: 200.0 mg/kg/injection, schedule: Q04DX003 (ip), vehicle: saline): 0 of 4 | survivor count [3]: 0 of 6 | survivor count [4]: 0 of 6 | survivor count [5]: 4 of 4

CC(=O)Nc1nc(SCc2ccccc2)c2c(no[n+]2[O-])n1
survivor count (dose: 400.0 mg/kg/injection, schedule: Q04DX002 (ip), vehicle: saline with Tween-80): 0 of 3

CC(=O)c1ccc(S(=O)(=O)Cl)cc1
survivor count [3]: 2 of 4

CC[S][Hg][Cl]
survivor count (dose: 12.0 mg/kg/injection, schedule: Q01DX009 (ip), vehicle: saline with Tween-80): 4 of 6 | survivor count [2]: 1 of 6 | survivor count (dose: 50.0 mg/kg/injection, schedule: Q04DX003 (ip), vehicle: saline with Tween-80): 0 of 6 | survivor count (dose: 100.0 mg/kg/injection, schedule: Q04DX003 (ip), vehicle: saline with Tween-80): 0 of 6 | survivor count (dose: 200.0 mg/kg/injection, schedule: Q04DX003 (ip), vehicle: saline with Tween-80): 0 of 6 | survivor count (dose: 400.0 mg/kg/injection, schedule: Q04DX003 (ip), vehicle: saline with Tween-80): 0 of 6

O=C(NCC(O)CNC(=O)Nc1ccc(C2=NCCN2)cc1)Nc1ccc(C2=NCCN2)cc1
T/C (dose: 7.5 mg/kg/injection, schedule: Q01DX Z (ip), vehicle: carboxymethylcellulose (CMC)): 128 % of control | T/C (dose: 42.0 mg/kg/injection, schedule: Q01DX Z (ip), vehicle: carboxymethylcellulose (CMC)): 145 % of control | survivor count (dose: 168.0 mg/kg/injection, schedule: Q01DX Z (ip), vehicle: carboxymethylcellulose (CMC)): 1 of 6

Cc1cccc(C)c1NC(=O)N(CCCl)N=O
T/C (dose: 8.0 mg/kg/injection, schedule: Q01DX001 (ip), vehicle: carboxymethylcellulose (CMC)): 136 % of control | T/C (dose: 8.6 mg/kg/injection, schedule: Q01DX Z (oral), vehicle: carboxymethylcellulose (CMC)): 144 % of control | T/C (dose: 30.0 mg/kg/injection, schedule: Q01DX Z (oral), vehicle: carboxymethylcellulose (CMC)): 140 % of control | T/C (dose: 45.0 mg/kg/injection, schedule: Q01DX Z (oral), vehicle: carboxymethylcellulose (CMC)): 144 % of control [5 of 6 alive] | survivor count (dose: 70.0 mg/kg/injection, schedule: Q01DX Z (oral), vehicle: carboxymethylcellulose (CMC)): 1 of 6 | survivor count (dose: 250.0 mg/kg/injection, schedule: Q01DX001 (ip), vehicle: carboxymethylcellulose (CMC)): 0 of 6 | survivor count (dose: 375.0 mg/kg/injection, schedule: Q01DX001 (ip), vehicle: carboxymethylcellulose (CMC)): 0 of 6 | survivor count (dose: 500.0 mg/kg/injection, schedule: Q01DX001 (ip), vehicle: carboxymethylcellulose (CMC)): 0 of 6

CC(=O)OCC1OC(n2cnc3c(=S)nc(N)[nH]c32)C(OC(C)=O)C1OC(C)=O (stereo not drawn)
T/C (dose: 3.3 mg/kg/injection, schedule: Q01DX Z (ip), vehicle: carboxymethylcellulose (CMC)): 127 % of control | survivor count (dose: 88.0 mg/kg/injection, schedule: Q01DX Z (ip), vehicle: carboxymethylcellulose (CMC)): 6 of 6 | T/C (dose: 100.0 mg/kg/injection, schedule: Q01DX015 (oral), vehicle: other): 143 % of control
